Experimental data from PubChem BioAssay AID662 (National Center for Advancing Translational Sciences (NCATS), 2007).
This is one part of the list. Shown are side measurements of this screen, not its main read-out; they come without a call. Most of these compounds were active or inconclusive in the main read-out, so they are no random draw. Words in brackets tell the shape of the fitted curve; partial curves, single points and poor fits give uncertain potencies.

assay: Cell signaling CRE-BLA (Fsk stim); conditions: CHO CRE-bla reporter (cAMP response element driving beta-lactamase), forskolin EC10, beta-lactamase ratio; measured here: 460 nm blue channel
Summary of the method: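 Modulation of forskolin-driven signalling is measured in CHO cells carrying a CRE-controlled beta-lactamase reporter. Cells are stimulated with EC10 NKH 477 in the presence of titrated compound for 3 h at 37 °C, then loaded with CCF4 for 2 h at room temperature.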

Row | SMILES | AC50
1 | Cc1nn(-c2ccccc2)c(Cl)c1C(=O)N1CCN(c2ncnc3c2cnn3-c2ccccc2)CC1 | 5.01 µM [falling, full curve]
2 | CCn1c(=O)cc(OCC(=O)N2CCN(c3cccc(C(F)(F)F)c3)CC2)c2ccccc21 | 12.6 µM [falling, partial curve]
3 | CCN(CC)c1ccc(C2CC(=O)NC3=C2C(=O)CC(C)(C)C3)cc1 (centres undefined) | 12.6 µM [falling, partial curve]
4 | O=C(CSc1ccc2nnc(-c3cccnc3)n2n1)NCC1CCCO1 (centres undefined) | 12.6 µM [rising, single point]
5 | O=C(c1cnn2c(C(F)F)cc(C3CC3)nc12)N1CCc2ccccc2C1 | 10 µM [rising, single point]
6 | COc1ccccc1NC(=O)CSc1nnnn1-c1ccc2c(c1)OCO2 | 10 µM [rising, single point]
7 | Cc1cc(-c2ccccc2)c2c3c(cn2n1)c(=O)n(C)c(=O)n3C | 6.31 µM [rising, partial curve]
8 | CN(C)CCCSc1ccccc1NC(=O)/C=C\c1ccccc1 | 31.6 µM [falling, single point]
9 | O=C(NCCCn1ccnc1)Nc1ccc(Cl)cc1 | 0.00794 µM [falling, full curve]
10 | CCOC(=O)N1CCc2c(sc(NC(=O)c3ccc(S(=O)(=O)N4CCCC4)cc3)c2C#N)C1 | 12.6 µM [rising, single point]
11 | COc1ccccc1CNc1nc(-c2c(C)noc2C)nc2ccccc12 | 10 µM [rising, partial curve]
12 | N#Cc1cc2ccc(N3CCOCC3)cc2cc1C#N | 15.8 µM [rising, partial curve]
13 | [O-]/[N+](=C/c1cccnc1)c1ccc(Br)cc1 | 0.00398 µM [falling, full curve, poor fit]
14 | COc1ccccc1CCn1c(=O)c(-c2ccc(F)c(F)c2)nc2cncnc21 | 10 µM [rising, partial curve]
15 | CCN(CC)c1nc(-c2nn[nH]n2)nc(N(CC)CC)n1 | 0.316 µM [rising, full curve]
16 | C/C=C/Cn1c(Br)nc2c1c(=O)n(C)c(=O)n2C | 12.6 µM [rising, single point]
17 | O=C1CC(c2nc3ccccc3[nH]2)CN1Cc1ccccc1 (centres undefined) | 10 µM [rising, single point]
18 | CCN(CC)C(=O)C1CC(c2ccc(OC)cc2)=NO1 (centres undefined) | 25.1 µM [rising, single point]
19 | CCN(CC(=O)NCc1cccs1)S(=O)(=O)c1cccc(C(C)=O)c1 | 0.0501 µM [falling, full curve]
20 | Cc1coc(C)c1C(=O)CC1(O)C(=O)Nc2cc(Cl)cc(Cl)c21 (centres undefined) | 10 µM [falling, partial curve]
21 | O=C(NCCCn1ccnc1)C1c2ccccc2Oc2ccccc21 | 0.0251 µM [falling, full curve, poor fit]
22 | CS/C(=N\S(=O)(=O)c1cccs1)Nc1ccc(N2CCOCC2)cc1 | 1.26 µM [falling, partial curve]
23 | CCCC(=O)NCCc1cc2ccc(C)c(C)c2[nH]c1=O | 10 µM [rising, partial curve]

Nothing new here: three of the compounds above.
Row | SMILES | AC50
9 | O=C(NCCCn1ccnc1)Nc1ccc(Cl)cc1 | 0.00794 µM [falling, full curve]
10 | CCOC(=O)N1CCc2c(sc(NC(=O)c3ccc(S(=O)(=O)N4CCCC4)cc3)c2C#N)C1 | 12.6 µM [rising, single point]
11 | COc1ccccc1CNc1nc(-c2c(C)noc2C)nc2ccccc12 | 10 µM [rising, partial curve]

(cont.)

Row | SMILES | AC50
24 | COc1ccc(-c2cc(C(F)F)n3ncc(C(=O)N4CCN(C(=O)c5ccco5)CC4)c3n2)cc1 | 12.6 µM [rising, partial curve]
25 | Cc1nc2cnc(N3CCNCC3)nc2n(Cc2cccs2)c1=O | 12.6 µM [rising, partial curve]
26 | Cn1c(Cc2csc(N)n2)nnc1SCC(=O)NC1CCCCC1 | 0.00398 µM [falling, full curve, poor fit]
27 | COC(=O)c1sc(NC(=O)C2CCCO2)c(C(=O)OC)c1C (centres undefined) | 0.631 µM [rising, full curve, poor fit]
28 | CCCN(C/C=C\I)[C@@H]1CCc2cccc(O)c2C1 | 15.8 µM [falling, partial curve, poor fit]
29 | CCN1CCN(C(=O)c2cc3c(=O)n(C)c4ccccc4c3n2C)CC1 | 25.1 µM [rising, single point]
30 | N#CCCSCc1ccc2oc(C(=O)O)cc2c1 | 10 µM [falling, partial curve]
31 | CCOc1ccccc1-c1nc(C(N)=O)c2[nH]c(=O)n(-c3cccc(C)c3)c2n1 | 12.6 µM [rising, partial curve]
32 | CNC(=O)C(Sc1ccccc1)c1ccccc1 (centres undefined) | 0.00316 µM [falling, full curve, poor fit]
33 | COc1ccc(CNC(=O)CSc2nnnn2-c2ccc(O)cc2)cc1 | 5.01 µM [falling, partial curve, poor fit]
34 | Cc1ccc(C2C(C#N)=C(N)Oc3c2sc2ccccc32)o1 (centres undefined) | 0.316 µM [falling, partial curve, poor fit]
35 | N#Cc1cc(-c2ccccc2)oc1NC(=O)c1ccco1 | 0.501 µM [rising, full curve]
36 | CCOc1ccc(S(=O)(=O)N2CCN(S(=O)(=O)c3ccc(OCC)cc3)C(C)C2)cc1 (centres undefined) | 0.316 µM [rising, full curve]
37 | Cc1cc(N=Cc2c(O)ccc3ccccc23)no1 | 15.8 µM [falling, partial curve]
38 | COC(=O)C(O)(NC(=O)OCc1ccccc1)C(F)(F)F (centres undefined) | 12.6 µM [falling, partial curve]
39 | Cc1cccc(CNc2nc(-c3ccccc3CN(C)C)nc3ccccc23)c1 | 6.31 µM [rising, partial curve]
40 | CC(=O)c1cc2c(cc1NC(=O)CSc1nnc(C)s1)OCO2 | 12.6 µM [rising, single point]
41 | Cc1cc(N2CCOCC2)n2nc(C)c(-c3ccccc3)c2n1 | 10 µM [rising, partial curve]
42 | C(=N\c1nc2ccccc2n1CCN1CCOCC1)/c1cccs1 | 1.58 µM [rising, partial curve]
43 | Cc1ccc2c(CN3C(=O)NC4(CCCCC4)C3=O)cc(=O)oc2c1C | 10 µM [rising, partial curve]
44 | COc1ccc(Cc2nc(-c3ccc(Br)o3)no2)cc1OC | 2 µM [rising, partial curve]
45 | O=C(Nc1nc(-c2ccc3c(c2)OCO3)cs1)c1ccncc1 | 15.8 µM [falling, single point]
46 | Cc1c(Nc2ncnc3nc[nH]c23)c(=O)n(-c2ccccc2)n1C | 3.16 µM [rising, full curve]

2 of these compounds in another layout.
Row	SMILES	AC50
12	N#Cc1cc2ccc(N3CCOCC3)cc2cc1C#N	15.8 µM [rising, partial curve]
30	N#CCCSCc1ccc2oc(C(=O)O)cc2c1	10 µM [falling, partial curve]

3 entries already listed, ordered by SMILES length, low to high.
Row | SMILES | AC50
35 | N#Cc1cc(-c2ccccc2)oc1NC(=O)c1ccco1 | 0.501 µM [rising, full curve]
21 | O=C(NCCCn1ccnc1)C1c2ccccc2Oc2ccccc21 | 0.0251 µM [falling, full curve, poor fit]
27 | COC(=O)c1sc(NC(=O)C2CCCO2)c(C(=O)OC)c1C (centres undefined) | 0.631 µM [rising, full curve, poor fit]

Continuation:

Row | SMILES | AC50
47 | COc1ccc(Oc2ncc3nc(-c4ccccc4)c(=O)n(CCC#N)c3n2)cc1 | 12.6 µM [rising, partial curve]
48 | Cc1nc2ccc(NC(=O)N3CCC(c4ccccc4)C3)cc2nc1C (centres undefined) | 10 µM [rising, partial curve]
49 | CCNc1nc(SC(C)C(=O)OC)nc(N2CCOCC2)n1 (centres undefined) | 12.6 µM [rising, partial curve]
50 | N#CCCn1c(SCC(=O)NCC2CCCO2)nc2ccccc21 (centres undefined) | 0.2 µM [falling, partial curve]
51 | Cc1ccc2nc3c(cc(C#N)c(=N)n3CC3CCCO3)c(=O)n2c1 (centres undefined) | 2.51 µM [rising, partial curve]
52 | COC(=O)Nc1nc(C)c(C(=O)N(C)C)s1 | 5.01 µM [falling, single point]
53 | CSc1ncccc1C(=O)OCC(=O)Nc1cc(C(F)(F)F)ccc1N1CCOCC1 | 12.6 µM [rising, partial curve]
54 | COc1cccc(-c2ccc3ncnc(NC4CC4)c3c2)c1 | 3.16 µM [rising, full curve]
55 | CSc1ccc(CN2CCC(O)CC2)cc1 | 1 µM [rising, single point]
56 | Cn1c(=N)c(S(=O)(=O)c2ccc(Cl)cc2)cc2c(=O)n3ccccc3nc21 | 12.6 µM [rising, partial curve]
57 | Cc1nc(C)c(C(=O)Nc2nc3c(C)cccc3s2)o1 | 5.01 µM [falling, partial curve]
58 | CC(=O)NCCn1c(SCc2cc(=O)n3cc(Cl)ccc3n2)nc2ccccc2c1=O | 0.501 µM [rising, full curve]
59 | CCOC(=O)C1CCN(C(=O)CC(NS(=O)(=O)c2ccc(OC)cc2)C(C)C)CC1 (centres undefined) | 7.94 µM [rising, partial curve]
60 | CCC(C)NC(=O)C1c2ccccc2C(=O)N1Cc1cc(OC)ccc1OC (centres undefined) | 0.0794 µM [falling, single point]
61 | CCOC(=O)c1nnn(-c2nonc2-n2cccc2)c1CN1CCC(C)CC1 | 0.398 µM [falling, full curve]
62 | COc1ccc(C(=O)NCc2cn3cccc(C)c3n2)cc1OC | 10 µM [rising, single point]
63 | CON(C)c1nc(OCCNC(=O)OCc2ccc(Cl)cc2Cl)nc(N(C)C)n1 | 12.6 µM [rising, single point]
64 | CC(=O)C1=C(O)C(=O)N(Cc2ccccc2)C1c1ccco1 (centres undefined) | 0.631 µM [falling, single point]
65 | Cc1nc2[nH]c(=O)c3c(n2n1)NC1=C(C(=O)CC(C)(C)C1)C3c1ccccc1 (centres undefined) | 20 µM [rising, single point]
66 | COc1ccc(-c2nnco2)cc1OC | 25.1 µM [rising, single point]
67 | CCOC(=O)c1sc(N)c(C#N)c1CSc1nc2ccc(OCC)cc2[nH]1 | 12.6 µM [rising, single point]
68 | O=c1cc(-c2cccc(O)c2O)oc2ccccc12 | 31.6 µM [falling, single point]
69 | O=c1c(-c2ccc(O)cc2)coc2cc(O)cc(O)c12 | 31.6 µM [falling, single point]
